# In patent US20090100532A1, “TRANSGENIC MICE EXPRESSING HYPERSENSITIVE NICOTINIC RECEPTORS” (CALIFORNIA INSTITUTE OF TECHNOLOGY, priority 2007, published 2009):
# No constants are given. Whether binding was seen depends on the method and setting. Some binding calls cover weakened binding; strength is not graded here.
# Target: β3-CFP^P379 (mouse) (UniProt Q8BMN3)
# Experiment: acceptor photobleaching FRET, N2a cells, untagged β2 coexpressed
substance,measurement,value
α6-YFP^A405 (from UniProt Q9R0W9 31-405; Q9R0W9 406-494) (receptor),binding,binds
